This test can be described thus: qHTS Assay for Modulators of Lamin A Splicing. Particulars: HeLa LMNA splicing GFP/RFP minigene ratio, 48 h. An outline of the steps: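 S3 HeLa cells stably expressing lamin A-EGFP splicing minigene plus DsRed2, 600 cells/well, 48 h compound exposure at 37C. Laser-scanning cytometry; analysed as GFP (500-530 nm)/RFP (575-640 nm) total intensity ratio; 0.5% DMSO vehicle.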

Where [1] appears, read: measured here: GFP splicing reporter channel.
[2] abbreviates: measured here: RFP viability control channel.

The AC50 is the concentration at which the activity in the assay is half-maximal.

The list shows a part of the results. Shown are side measurements of this screen, not its main read-out; they come without a call. Most of these compounds were active or inconclusive in the main read-out, so they are no random draw. Potencies come from curve fits of mixed quality, noted in brackets.

On to `Cn1c(=O)c(-c2ccc(Cl)cc2)nc2cnc(N3CCNCC3)nc21`, for which the AC50 is 20 µM [falling, partial curve] under setting [1] and 12.6 µM [falling, single point] under setting [2].

As to `O=C(C1CCN(S(=O)(=O)N2CCOCC2)CC1)N1CCN(Cc2ccc3c(c2)OCO3)CC1`, the AC50 by setting is: under setting [1], 12.6 µM [rising, single point]; under setting [2], 17.8 µM [rising, single point].

With `CCCNC(=O)N1CCCC(C(N)=O)C1` (stereo not drawn), under setting [2], the AC50 was 0.0355 µM [falling, full curve, poor fit].

For the compound `CCOc1cc(Br)ccc1S(=O)(=O)N1CC(C)OC(C)C1` (stereo not drawn), the AC50 under setting [2] is 35.5 µM [rising, single point].

For the compound `Cc1cc(C)n2cc(CSc3nncn3C)nc2n1`, the AC50 under setting [1] is 0.0708 µM [falling, full curve, poor fit].

As for `C/C(N)=C(/C#N)C(=O)CSc1nc2scc(-c3ccccc3)c2c(=O)n1C`, the AC50 under setting [1] is 31.6 µM [falling, single point].

`CCOc1ccc(CCNC(=O)CCCn2c(=O)c3cccn3c3ccccc32)cc1`: the AC50 under setting [2] is 12.6 µM [rising, partial curve].

For the compound `CCOc1ccc2[nH]cc(S(=O)(=O)c3ccc(F)cc3)c(=O)c2c1`, the AC50 under setting [2] was 35.5 µM [rising, single point].

Consider `COC(=O)NCC(c1cccnc1)N1CCN(c2ccc(F)cc2)CC1` (stereo not drawn), for which the AC50 by setting is: under setting [1], 14.1 µM [falling, single point]; under setting [2], 14.1 µM [falling, single point].

As to `Cc1cc(NC(=O)COC(=O)C(Nc2ccc(C(F)(F)F)cc2Cl)C(C)C)no1` (stereo not drawn), the AC50 under setting [1] is 35.5 µM [falling, single point].

For the compound `O=C(NCc1ccco1)c1sc(=S)n2c1[nH]c(=O)c1ccccc12`, the concentration at half-maximal activity (AC50) by setting is: under setting [1], 0.631 µM [falling, single point]; under setting [2], 11.2 µM [rising, partial curve].

Regarding `CCc1ccccc1NC(=O)CCNS(=O)(=O)c1ccc2c(c1)CCN2C(=O)C1CC1`, the AC50 under setting [1] is 10 µM [falling, partial curve] and the concentration at half-maximal activity (AC50) under setting [2] was 25.1 µM [falling, single point].

In the case of `COC(=O)c1c(C)oc2ccc(N(C(=O)Oc3ccccc3)S(=O)(=O)c3ccccc3)cc12`, the AC50 under setting [2] is 22.4 µM [rising, single point].

Regarding `Cc1cccc(C2=NC(C(F)(F)F)(C(F)(F)F)c3c(n(-c4ccc(F)cc4)c(=O)[nH]c3=O)N2)c1`, the concentration at half-maximal activity (AC50) is, setting by setting: under setting [1], 0.1 µM [rising, full curve, poor fit]; under setting [2], 0.112 µM [rising, full curve].

As to `CSC(=Nc1ccc(Cl)cc1)N[n+]1ccccc1`, under setting [1], the half-maximal activity concentration (AC50) is 0.355 µM [rising, full curve, poor fit].

As for `CN1CCC(N(C)C(=O)CCc2nc3ccccc3c(=O)[nH]2)CC1`, the AC50 under setting [1] was 1.26 µM [falling, single point].

For `O=c1cc(O)cc(/C=C/c2ccc(O)c(O)c2)o1`, the AC50 under setting [2] was 0.00501 µM [falling, full curve, poor fit].

As to `Cc1ccc2c(c1)c1c(n2CC(O)Cn2c(C)nc3ccccc32)/C(=N\O)CCC1` (stereo not drawn), the half-maximal activity concentration (AC50) under setting [1] was 35.5 µM [falling, single point].

Regarding `CCn1c2ccccc2c2cc(/C=N/NC(=O)c3cccc(C)c3)ccc21`, the concentration at half-maximal activity (AC50) under setting [2] is 17.8 µM [rising, single point].

As for `Cc1nc(C)c(C(=O)NNS(=O)(=O)c2ccc3ccccc3c2)s1`, the concentration at half-maximal activity (AC50) under setting [2] is 3.55 µM [rising, full curve].

As to `COCc1cc(N2CCOCC2)nc(SCc2ccc(Cl)cc2)n1`, the concentration at half-maximal activity (AC50) under setting [1] is 35.5 µM [rising, single point] and the AC50 under setting [2] is 31.6 µM [rising, single point].

`Brc1ccc2ncnc(NCc3ccccc3)c2c1`: the concentration at half-maximal activity (AC50) under setting [2] is 17.8 µM [rising, single point].

In the case of `CC(=O)c1c(C)[nH]c(C(=O)CSc2nnc(N)s2)c1C`, the concentration at half-maximal activity (AC50) under setting [1] is 3.16 µM [falling, full curve] and the AC50 under setting [2] was 2.82 µM [falling, full curve].

On to `COc1cc(OC)c(NS(=O)(=O)c2cc(-c3cnc(C)o3)ccc2OC)cc1Cl`, for which the AC50 runs as follows: under setting [1], 3.16 µM [rising, partial curve]; under setting [2], 5.01 µM [rising, partial curve].

For `Cc1ccccc1C(=O)Nc1ccc2c(C#N)c3nc4ccccc4nc3n2c1`, under setting [2], the AC50 was 6.31 µM [rising, partial curve, poor fit].

Take `COc1ccc(-c2cc(C(=O)O)nc3ccc4ccccc4c23)cc1OC`: the half-maximal activity concentration (AC50) under setting [1] is 0.631 µM [rising, full curve, poor fit].

With `CCCc1ccc(OCC(=O)NNC(=S)NC(=O)c2ccco2)cc1`, the AC50 under setting [2] is 20 µM [rising, single point].

For `O=C(Cn1c2c(sc1=O)C1c3ccccc3OCC1CS2)Nc1ccc(Cl)c(Cl)c1` (stereo not drawn), the half-maximal activity concentration (AC50) under setting [2] is 7.08 µM [rising, partial curve].

In the case of `Cc1cc(NC2CCCCC2)nc2ccccc12`, the AC50 under setting [2] was 31.6 µM [rising, single point].

As to `COc1ccc2oc(C(=O)OCC(=O)c3ccc4c(c3)OCCO4)c(C)c2c1`, under setting [2], the AC50 is 10 µM [rising, partial curve, poor fit].

For the compound `Cc1cccc(N=C2NC(=O)/C(=C/c3cn(C)c4ccccc34)S2)c1`, under setting [2], the AC50 is 35.5 µM [rising, single point].

As for `C(=C\c1ccccc1)/CSc1nnc(-c2ccccc2)n1Cc1ccco1`, the concentration at half-maximal activity (AC50) under setting [1] is 7.08 µM [falling, partial curve] and the half-maximal activity concentration (AC50) under setting [2] is 7.94 µM [falling, partial curve].

On to `CCOc1ccc(-c2nc(S(=O)(=O)c3ccccc3)c(N3CCOCC3)o2)cc1`, for which the half-maximal activity concentration (AC50) was 0.0141 µM [rising, full curve, poor fit] under setting [1] and 0.0178 µM [rising, full curve, poor fit] under setting [2].

As for `CNC(CC(=O)c1ccc([N+](=O)[O-])cc1)C(Cl)(Cl)Cl` (stereo not drawn), the AC50 under setting [1] was 35.5 µM [falling, single point].

As to `COC(=O)c1scc(-c2ccc(C)cc2)c1S(=O)(=O)N1CCN(c2ccc(OC)cc2)CC1`, the AC50 under setting [1] was 0.00891 µM [falling, full curve, poor fit].

Take `CCNC(=O)NC(=O)C(C)OC(=O)c1oc2ccccc2c1CSC1CCCCC1` (stereo not drawn): the AC50 under setting [2] is 6.31 µM [falling, single point].

For the compound `Cc1oc2ccc(O)c(CN(C)C)c2c1C(=O)c1ccccc1`, the concentration at half-maximal activity (AC50) is 0.0398 µM [rising, full curve, poor fit] under setting [1] and 0.0224 µM [rising, full curve, poor fit] under setting [2].

In the case of `O=C(CN(CC1CCCO1)C(=O)CCC(=O)Nc1nccs1)NCC1CCCO1` (stereo not drawn), under setting [2], the AC50 was 0.2 µM [rising, partial curve, poor fit].

For the compound `COc1ccc(Cl)c(Cn2c(NCc3ccco3)nc3c2c(=O)n(C)c(=O)n3C)c1`, the AC50 under setting [2] is 22.4 µM [rising, single point].

Turning to `O=C(N/N=C/C(Cl)=C/c1ccccc1)c1cnccn1`, the AC50 under setting [1] is 0.631 µM [falling, single point].

For the compound `CCOc1ccccc1C(=O)Nc1ccsc1C(=O)OC`, the AC50 under setting [2] is 7.94 µM [rising, partial curve].

Consider `O=C(NN=C1CCCCCCCCCCC1)c1cccc(S(=O)(=O)N2CCOCC2)c1`, for which the AC50 under setting [1] was 0.282 µM [rising, full curve, poor fit].

For the compound `COc1ccc(NC(=O)c2sc3nc4n(c(=O)c3c2C)CCC4)cc1Cl`, under setting [1], the concentration at half-maximal activity (AC50) is 39.8 µM [rising, partial curve, poor fit].

As to `C=CCN1C(=O)/C(=c2\sc3nc(=O)c(Cc4ccccc4Cl)nn3c2=O)c2ccccc21`, the AC50 was 0.00891 µM [rising, full curve, poor fit] under setting [1] and 0.00447 µM [rising, full curve, poor fit] under setting [2].

On to `Cn1c(=O)n(CC(=O)N2CCN(c3nnc(-c4ccccc4)c4ccccc34)CC2)c2ccccc21`, for which the AC50 under setting [2] is 11.2 µM [rising, partial curve].

Turning to `CCOc1ccc(CCNC(=O)COC(=O)c2ccccc2O)cc1OCC`, the AC50 runs as follows: under setting [1], 0.282 µM [falling, full curve, poor fit]; under setting [2], 0.282 µM [falling, full curve, poor fit].

As to `O=C(NCc1ccc(Cl)cc1)c1cnc2sc(N3CCCC3)nn2c1=O`, under setting [1], the AC50 is 0.0224 µM [falling, full curve, poor fit].

As to `Cc1cccc(Nc2ccccc2C(=O)NCc2ccco2)c1C`, the concentration at half-maximal activity (AC50) was 22.4 µM [falling, single point] under setting [1] and 20 µM [falling, partial curve] under setting [2].

On to `CCOc1ccc(C(c2c(O)cc(C)n(CCOC)c2=O)N2CCC(C)CC2)cc1` (stereo not drawn), for which the half-maximal activity concentration (AC50) under setting [1] is 0.708 µM [rising, full curve, poor fit].

Regarding `COc1cccc(OC)c1OCCCOc1ccc(C)cc1Br`, under setting [2], the half-maximal activity concentration (AC50) is 12.6 µM [rising, partial curve, poor fit].

For the compound `C/C(CCc1ccccc1)=N\NC(=O)C1C2CCCCC21` (stereo not drawn), the AC50 under setting [2] was 20 µM [falling, partial curve, poor fit].

For the compound `CCC(=O)N(CCN1CCOCC1)Cc1cc2cc3c(cc2nc1Cl)OCO3`, under setting [2], the half-maximal activity concentration (AC50) was 11.2 µM [falling, single point].

For `Cc1ccc(Cl)cc1NC(=S)N(Cc1ccccc1)Cc1cccnc1`, the half-maximal activity concentration (AC50) under setting [1] was 14.1 µM [falling, single point].

Consider `NC1=NC2(CCCCC2)N(c2ccc(F)cc2F)C(N)=N1`, for which the half-maximal activity concentration (AC50) reads like this: under setting [1], 3.16 µM [falling, partial curve]; under setting [2], 6.31 µM [falling, single point].

As for `COc1ccc(CNC(=O)/C=C/c2ccc(S(=O)(=O)NCc3ccco3)cc2)cc1OC`, under setting [2], the concentration at half-maximal activity (AC50) was 20 µM [rising, partial curve].

Take `COc1ccc(N=C2NN=C(c3c(C)[nH]c4ccccc34)CS2)cc1`: under setting [1], the concentration at half-maximal activity (AC50) was 1.26 µM [rising, partial curve, poor fit].

Take `O=c1[nH]c(=O)n(Cc2ccco2)c2c1C(C(F)(F)F)(C(F)(F)F)N=C(c1ccc(F)cc1)N2`: the AC50 under setting [2] is 1.41 µM [rising, partial curve].

The values are drawn from PubChem BioAssay AID1487 (National Center for Advancing Translational Sciences (NCATS), 2009).
